Among all 320,000 compounds or so, about 22,000 (6.9%) were called active. Inconclusive results, whose numbers are uncertain, are shown with a selection of clear calls. Calls follow the shape of the dose curve; as a rule, active = well fitted inhibition curve with a large enough effect; inconclusive = small, poorly fitted or top-dose-only effect, or another doubt; inactive = no such curve, though single readings can be large or run the other way. A potency beside an inconclusive call is a rough fit, not a confirmed value.
Assay: Primary qHTS for delayed death inhibitors of the malarial parasite plastid, 96 hour incubation
Settings: P. falciparum luciferase reporter growth; series mostly up to 28.7 µM
In short: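 Two-generation exposure (96 h) targets delayed-death phenotype. Reporter parasites carrying integrated firefly luciferase, in red cells at 2% hematocrit and 0.05% parasitemia final, kept at 37 C, 5% CO2; luminescence loss indicates inhibition.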
Potency is read from the fitted curve at half-maximal effect.

Row | SMILES | Potency
1 | COC(=O)c1cc2oc3ccccc3c2n1CC(=O)Nc1ccccc1OC | inconclusive: 0.0415 µM [inhibitor, full curve, poor fit]
2 | CCc1nc(SCc2ccccc2)n[nH]1 | inactive
3 | CC(=O)NNC(=S)NC(=O)C(c1ccccc1)c1ccccc1 | inconclusive: 1.04 µM [inhibitor, partial curve, poor fit]
4 | COC(=O)CCCC1=CC2=C(c3ccccc3)C(=O)C(C)(OC(=O)C3CCCC3)C(=O)C2=CN1CCc1c[nH]c2ccccc12 (stereo not given) | inconclusive: 1.47 µM [inhibitor, full curve]
5 | CCN1N=C(c2ccccc2)Cn2c1nc1ccccc12 | active: 6.57 µM
6 | CN(c1ccccc1C(=O)N1CCN(Cc2ccc3c(c2)OCO3)CC1)S(C)(=O)=O | inconclusive: 10.4 µM [inhibitor, partial curve, poor fit]
7 | CCc1ccc(-c2cc(C(=O)Nn3cnnc3)c3ccccc3n2)cc1 | inconclusive: 18.5 µM [inhibitor, single point]
8 | CCOc1ccccc1CNC(=O)CN1C(=O)CSc2ccc(S(=O)(=O)N3CCOCC3)cc21 | inconclusive: 10.4 µM [inhibitor, single point]
9 | C#CCOCCOCCOCCNc1nc(N2CCN(C(=O)Cn3cc(CCCN=C(N)N)nn3)CC2)nc(N2CCN(C(=O)Cn3cc(CCCN=C(N)N)nn3)CC2)n1 | active: 0.0329 µM
10 | Cc1cccc(OC2(c3ccccc3)OC(=O)c3ccccc32)c1C (stereo not given) | active: 9.28 µM
11 | Cc1ccc(NC2CCCN(C(=O)c3ccc4nccnc4c3)C2)cc1C (stereo not given) | inconclusive: 18.5 µM [inhibitor, single point]
12 | Cc1cc(C)cc(OCC(=O)Nc2nc(-c3cccnc3)cs2)c1 | active: 14.7 µM
13 | O=C(NCCN1CCOCC1)c1ccc(/C=C2\Sc3ccccc3N(Cc3ccccc3F)C2=O)cc1 | inconclusive: 11.7 µM [inhibitor, partial curve]
14 | O=C(Nc1ccccc1N1CCN(C(=O)c2ccccc2)CC1)c1cc(Br)ccc1Cl | inconclusive: 16.5 µM [inhibitor, partial curve, poor fit]
15 | COc1ccc(OC)c(NC(=O)Cn2c(=O)n(CC3CCCO3)c(=O)c3cc(OC)c(OC)cc32)c1 (stereo not given) | inconclusive: 0.294 µM [inhibitor, partial curve, poor fit]
16 | Cc1ccc2nc(SC(C(=O)Nc3ccc(F)cc3)c3ccccc3)[nH]c2c1 (stereo not given) | inactive
17 | CCOC(=O)CNc1nc2ccccc2n2c(C)nnc12 | inactive
18 | O=C(Nc1nnc(-c2ccc(F)cc2)o1)c1cccc([N+](=O)[O-])c1 | inconclusive: 11.7 µM [inhibitor, single point]
19 | CCN1CCC[C@H]1CNC(=O)c1c(O)c(Cl)cc(Cl)c1OC | inconclusive: 19 µM [inhibitor, single point]
20 | CCOC(=O)c1c(C)[nH]c(C)c1C(=O)COC(=O)c1ccc(O)cc1 | inconclusive: 4.15 µM [inhibitor, partial curve, poor fit]
21 | CCN1C(=O)c2cccc3c(NC(=O)c4ccc5c(c4)OCCO5)ccc1c23 | inconclusive: 18.5 µM [inhibitor, single point]
22 | CCOC(=O)c1cccc(NC(=O)CNS(=O)(=O)c2cccs2)c1 | inconclusive: 9.28 µM [inhibitor, partial curve, poor fit]

Row | SMILES | Potency
23 | Cc1ccc(NC(=O)c2ccc(OC(=O)COc3ccc(Cl)c(C)c3)cc2)cc1 | inactive
24 | CCOc1ccccc1CNC(=O)C(C)n1nc(C)c2c(C)n(-c3ccccc3)nc2c1=O (stereo not given) | inconclusive: 14.7 µM [inhibitor, partial curve]
25 | O=C(O)c1cc([N+](=O)[O-])ccc1N1CCCCC1 | inconclusive: 2.33 µM [inhibitor, full curve]
26 | CC(=O)N1c2ccc(S(=O)(=O)NCCC(=O)Nc3ccc(F)cc3C)cc2CC1C (stereo not given) | inconclusive: 0.117 µM [inhibitor, full curve, poor fit]
27 | CC1Sc2ccc(S(=O)(=O)N3CCC(C(=O)N4CCN(C)CC4)CC3)cc2NC1=O (stereo not given) | inconclusive: 11.7 µM [inhibitor, single point]
28 | CCn1c(CSCc2ccc(C)cc2)n[nH]c1=S | inconclusive: 9.28 µM [inhibitor, partial curve]
29 | COC(=O)Cc1sc(-c2ccccn2)nc1-c1ccccc1 | inactive
30 | Cc1ccc(NC(=O)CS(=O)CC(=O)NCCCN(C)c2ccccc2)cc1 (stereo not given) | inconclusive: 18.5 µM [inhibitor, single point]
31 | COC(=O)c1ccc(S(=O)(=O)N2C3CCC2CC(NC(=O)C2CC2)C3)cc1 (stereo not given) | inconclusive: 0.0828 µM [inhibitor, full curve, poor fit]
32 | Cc1cc(C(=O)NNC(=S)Nc2cccc(C(F)(F)F)c2)nn1C | inactive
33 | CCOC(=O)C1CCN(c2c(Nc3cc(C)cc(C)c3)c(=O)c2=O)CC1 | inconclusive: 9.28 µM [inhibitor, single point]
34 | CCOc1ccccc1NC(=O)C(c1ccccc1)N1CCN(CC(=O)N2CCOCC2)CC1 (stereo not given) | inconclusive: 8.28 µM [inhibitor, partial curve, poor fit]
35 | COc1cccc(C(c2nnnn2Cc2ccccc2)N2CCN(C(=O)c3ccco3)CC2)c1OC (stereo not given) | inconclusive: 4.15 µM [inhibitor, partial curve, poor fit]
36 | CCC(CC)C(=O)Nc1cccc(C(=O)Nc2ccc(S(=O)(=O)Nc3ccc(C)cc3)cc2)c1 | inconclusive: 11.7 µM [inhibitor, partial curve, poor fit]
37 | COc1cc2c(cc1OC)C(c1ccccc1C(F)(F)F)CC(=O)N2 (stereo not given) | inconclusive: 13.1 µM [inhibitor, single point]
38 | COc1ccccc1NC(=O)C(C)OC(=O)c1ccc(-n2cnnn2)cc1 (stereo not given) | inconclusive: 18.5 µM [inhibitor, single point]
39 | COc1ccc(N(CC(=O)NCC2CCCO2)C(=O)CCC(=O)Nc2nccs2)c(OC)c1 (stereo not given) | inactive
40 | CCOC(=O)c1c(C)nc(-c2ccccc2)nc1N | active: 10.4 µM
41 | O=C(NCc1ccco1)C(=O)NCC1OCCN1C(=O)c1ccc(Cl)cc1 (stereo not given) | inactive
42 | COc1cccc(C(=O)Nc2ccc(NC(=O)c3ccco3)cn2)c1 | inconclusive: 0.0185 µM [inhibitor, full curve, poor fit]
43 | NS(=O)(=O)c1ccc(CCNC(=O)COC(=O)C2CCC2)cc1 | inconclusive: 18.5 µM [inhibitor, partial curve, poor fit]
44 | CCOC(=O)[C@H]1[C@H]2COc3ccc(Br)cc3[C@@H]2N2C(=O)c3ccc(C)cc3NC(=O)[C@@]12C | inconclusive: 18.5 µM [inhibitor, single point]

Row | SMILES | Potency
45 | CCOc1cc(C(N)=O)cc(Br)c1OCc1ccccc1 | inactive
46 | COc1ccc(OC)c(-n2nnnc2SCC(=O)Nc2ccc(C(=O)N3CCCCC3)cc2)c1 | active: 11.7 µM
47 | COc1ccccc1/C=C/C(=O)NCC(=O)N/N=C/c1ccc(C(=O)O)cc1 | inactive
48 | CCN(CCCNC(=O)CCn1c(=O)[nH]c2ccsc2c1=O)c1ccccc1 | inconclusive: 10.4 µM [inhibitor, partial curve]
49 | O=C(Cc1ccc(Cl)cc1)NN1C(=O)c2ccccc2C1=O | inconclusive: 7.38 µM [inhibitor, partial curve]
50 | CCc1nn(CCCC(=O)N(C)Cc2ccccc2)c(=O)c2cc3occc3n12 | inconclusive: 18.5 µM [inhibitor, single point]
51 | COc1ccc(-c2c(C)oc3c(CN4CCOCC4)c(O)ccc3c2=O)cc1 | inconclusive: 20.8 µM [inhibitor, partial curve, poor fit]
52 | O=C(NC(=S)NCC1CCCO1)c1ccc(Cl)cc1Cl (stereo not given) | inconclusive: 0.0828 µM [inhibitor, full curve, poor fit]
53 | Cc1cc(/C=N/Nc2nc(N3CCOCC3)nc(N3CCOCC3)n2)c(C)n1-c1ccccc1 | inactive
54 | Nc1nonc1-n1nnc(C(=O)N/N=C/c2c(F)cccc2Cl)c1-c1ccc2c(c1)OCO2 | active: 6.57 µM
55 | O=C1NNC(c2ccccc2)=N/C1=C\c1ccccc1Cl | inconclusive: 11.7 µM [inhibitor, single point]
56 | COc1ccc2c(c1OC)C(=O)OC2Nc1ncc(Br)cc1Br (stereo not given) | inconclusive: 11.7 µM [inhibitor, partial curve, poor fit]
57 | CN(C)c1ccc(C(=O)N2CCCC(N3CCN(Cc4ccc5c(c4)OCO5)CC3)C2)cc1 (stereo not given) | inconclusive: 1.04 µM [inhibitor, full curve]
58 | COc1ccc2nc(NC(=O)c3cccc(S(=O)(=O)N4CCOCC4)c3)sc2c1 | inconclusive: 0.465 µM [inhibitor, full curve, poor fit]
59 | CCOc1ccccc1CNC(=O)C1Cc2cc(S(=O)(=O)N3CCCCC3)ccc2N1C(C)=O (stereo not given) | inconclusive: 18.5 µM [inhibitor, single point]
60 | COc1cccc(C(=O)Nc2nnc(SCC(=O)NC3CCCC3)s2)c1 | inactive
61 | CCc1ccccc1NC(=O)C1COc2ccccc2O1 (stereo not given) | active: 2.94 µM
62 | COC(=O)c1ccc(NC(=O)CN2C(=O)CC(C)S(=O)(=O)c3ccccc32)cc1 (stereo not given) | inconclusive: 11.7 µM [inhibitor, partial curve, poor fit]
63 | Cc1ccc(NC(=O)CNC(c2ccccc2)c2ccccc2)c(F)c1 | inconclusive: 18.5 µM [inhibitor, single point]
64 | CN1CCN(CCOC2c3ccccc3CSc3ccc(Cl)cc32)CC1 (stereo not given) | active: 10.4 µM
65 | COc1ccc2oc(/C=C/N(C)C)c(C(=O)c3ccc(Cl)cc3)c2c1 | inconclusive: 16.5 µM [inhibitor, single point]

Exported comma-delimited: entries from further up.
Row,SMILES,Potency
48,CCN(CCCNC(=O)CCn1c(=O)[nH]c2ccsc2c1=O)c1ccccc1,"inconclusive: 10.4 µM [inhibitor, partial curve]"
49,O=C(Cc1ccc(Cl)cc1)NN1C(=O)c2ccccc2C1=O,"inconclusive: 7.38 µM [inhibitor, partial curve]"
50,CCc1nn(CCCC(=O)N(C)Cc2ccccc2)c(=O)c2cc3occc3n12,"inconclusive: 18.5 µM [inhibitor, single point]"
51,COc1ccc(-c2c(C)oc3c(CN4CCOCC4)c(O)ccc3c2=O)cc1,"inconclusive: 20.8 µM [inhibitor, partial curve, poor fit]"

Reference: PubChem BioAssay AID504834 (National Center for Advancing Translational Sciences (NCATS), 2011)
